## Results from one PubChem assay

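Genome-wide siRNA knockdown in TC32 Ewing sarcoma cells, comparing luciferase light from an NR0B1-promoter reporter with a CMV-promoter reporter 48 hours after transfection. Each siRNA was applied at 20 nM. A z-score of the log NR0B1-over-CMV signal, less the median of siRNAs with the same seed; more negative means a stronger specific loss of the NR0B1 reporter.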

This is part of the screen; most of the strongest results are not listed here. Sequences are the guide (antisense) strand, without overhang.

With UCUCUCAUCAUCGGAAAGC against LEO1 the assay gave seed-corrected z-score 0.01909.
With UGUUGUUUCACAGGUUUCC against PTGFR the assay gave seed-corrected z-score -0.6606.
With AUAAUGGUAAUUCUCCUUC against NUDT15 the assay gave seed-corrected z-score -0.9605.
With UUAAUAGCAAGCAAUAUGC against TPST2 the assay gave seed-corrected z-score -0.1676.
With UAUCUGAGAGAUAAUAUUC against TSPAN9 the assay gave seed-corrected z-score 1.267.
With UUUACAUUCAUUACAACGG against ZNF221 the assay gave seed-corrected z-score -0.3601.
With UCUGUUAGAAUGGUCCUCC against CEP350 the assay gave seed-corrected z-score -0.5821.
With UUUGAGUAACGAUCCAGUG against DISP1 the assay gave seed-corrected z-score 1.23.
With UAUCACUAUAGGAAUAUUC against MYOZ2 the assay gave seed-corrected z-score 0.6627.
With UUUCCUUUGAUUGACUGGG against CD3G the assay gave seed-corrected z-score 0.04736.
With UGAAUACCACUCUCUGACC against GANC the assay gave seed-corrected z-score 0.4923.
With UGGAAUAUCAUAAACCCGG against CYBB the assay gave seed-corrected z-score 0.7197.
With UAAGCUUGACAUAACAGGG against SYNPR the assay gave seed-corrected z-score -0.04736.
With AACACUUUGAUAUCUGCUC against IQSEC1 the assay gave seed-corrected z-score 0.5163.
With AAACUGACAAAUAUAGACG against SCAMP1 the assay gave seed-corrected z-score -0.05987.
With UAUCGAUCAAUGCUGAGAC against AGTR1 the assay gave seed-corrected z-score 0.3467.
With UAACGUAGAAAUCUUGUUG against PKD1 the assay gave seed-corrected z-score 0.7709.
With UAGCGUAUCACCUUCUCUC against PAPPA2 the assay gave seed-corrected z-score -0.8029.
With UAGAUGACCGAAACUAUGC against GBF1 the assay gave seed-corrected z-score 0.01838.
With UUAUAUGAGGUAUAAAUGG against SPCS2 the assay gave seed-corrected z-score 0.7077.
With UGUAUAGUGAUUCAUAUAG against ZNF181 the assay gave seed-corrected z-score -0.6169.
With UCUUGUGCAAACAACCUUC against TRAF6 the assay gave seed-corrected z-score -1.139.
With UUGAUGUCCACUUGCAGUG against TGFB1 the assay gave seed-corrected z-score -0.9175.
With AUUACAUCACCAAUCGUUG against EPB41L5 the assay gave seed-corrected z-score -0.9163.
With UUUCGAAGAUCUCAUGUGC against SUPV3L1 the assay gave seed-corrected z-score 0.01305.
With UUUGGUUUUGAGUUCCAGC against NFIA-AS1 the assay gave seed-corrected z-score 2.316.
With UAUUUGAUUGUUACCCUCA against CFHR2 the assay gave seed-corrected z-score 0.7639.
With UAGUGUCUUAGGUCUUUCC against LOC645485 the assay gave seed-corrected z-score -0.07115.
With UUCUUCAUAAACCAGUUGG against TAGLN the assay gave seed-corrected z-score -1.308.
With AACUUGACAGGCUUUGUUG against MUM1 the assay gave seed-corrected z-score 0.2333.

Once more, the final 3:

For UAGUGUCUUAGGUCUUUCC against LOC645485 the result was seed-corrected z-score -0.07115.
For UUCUUCAUAAACCAGUUGG against TAGLN the result was seed-corrected z-score -1.308.
For AACUUGACAGGCUUUGUUG against MUM1 the result was seed-corrected z-score 0.2333.

Source: PubChem BioAssay AID1159506 (NCATS, 2015).